These results are taken from article PMC7351999.

Amino acid sequences for entries named in this document (tags omitted). A change or cut given only in a name is not applied to a line headed by its entry.
UniProt Q92608: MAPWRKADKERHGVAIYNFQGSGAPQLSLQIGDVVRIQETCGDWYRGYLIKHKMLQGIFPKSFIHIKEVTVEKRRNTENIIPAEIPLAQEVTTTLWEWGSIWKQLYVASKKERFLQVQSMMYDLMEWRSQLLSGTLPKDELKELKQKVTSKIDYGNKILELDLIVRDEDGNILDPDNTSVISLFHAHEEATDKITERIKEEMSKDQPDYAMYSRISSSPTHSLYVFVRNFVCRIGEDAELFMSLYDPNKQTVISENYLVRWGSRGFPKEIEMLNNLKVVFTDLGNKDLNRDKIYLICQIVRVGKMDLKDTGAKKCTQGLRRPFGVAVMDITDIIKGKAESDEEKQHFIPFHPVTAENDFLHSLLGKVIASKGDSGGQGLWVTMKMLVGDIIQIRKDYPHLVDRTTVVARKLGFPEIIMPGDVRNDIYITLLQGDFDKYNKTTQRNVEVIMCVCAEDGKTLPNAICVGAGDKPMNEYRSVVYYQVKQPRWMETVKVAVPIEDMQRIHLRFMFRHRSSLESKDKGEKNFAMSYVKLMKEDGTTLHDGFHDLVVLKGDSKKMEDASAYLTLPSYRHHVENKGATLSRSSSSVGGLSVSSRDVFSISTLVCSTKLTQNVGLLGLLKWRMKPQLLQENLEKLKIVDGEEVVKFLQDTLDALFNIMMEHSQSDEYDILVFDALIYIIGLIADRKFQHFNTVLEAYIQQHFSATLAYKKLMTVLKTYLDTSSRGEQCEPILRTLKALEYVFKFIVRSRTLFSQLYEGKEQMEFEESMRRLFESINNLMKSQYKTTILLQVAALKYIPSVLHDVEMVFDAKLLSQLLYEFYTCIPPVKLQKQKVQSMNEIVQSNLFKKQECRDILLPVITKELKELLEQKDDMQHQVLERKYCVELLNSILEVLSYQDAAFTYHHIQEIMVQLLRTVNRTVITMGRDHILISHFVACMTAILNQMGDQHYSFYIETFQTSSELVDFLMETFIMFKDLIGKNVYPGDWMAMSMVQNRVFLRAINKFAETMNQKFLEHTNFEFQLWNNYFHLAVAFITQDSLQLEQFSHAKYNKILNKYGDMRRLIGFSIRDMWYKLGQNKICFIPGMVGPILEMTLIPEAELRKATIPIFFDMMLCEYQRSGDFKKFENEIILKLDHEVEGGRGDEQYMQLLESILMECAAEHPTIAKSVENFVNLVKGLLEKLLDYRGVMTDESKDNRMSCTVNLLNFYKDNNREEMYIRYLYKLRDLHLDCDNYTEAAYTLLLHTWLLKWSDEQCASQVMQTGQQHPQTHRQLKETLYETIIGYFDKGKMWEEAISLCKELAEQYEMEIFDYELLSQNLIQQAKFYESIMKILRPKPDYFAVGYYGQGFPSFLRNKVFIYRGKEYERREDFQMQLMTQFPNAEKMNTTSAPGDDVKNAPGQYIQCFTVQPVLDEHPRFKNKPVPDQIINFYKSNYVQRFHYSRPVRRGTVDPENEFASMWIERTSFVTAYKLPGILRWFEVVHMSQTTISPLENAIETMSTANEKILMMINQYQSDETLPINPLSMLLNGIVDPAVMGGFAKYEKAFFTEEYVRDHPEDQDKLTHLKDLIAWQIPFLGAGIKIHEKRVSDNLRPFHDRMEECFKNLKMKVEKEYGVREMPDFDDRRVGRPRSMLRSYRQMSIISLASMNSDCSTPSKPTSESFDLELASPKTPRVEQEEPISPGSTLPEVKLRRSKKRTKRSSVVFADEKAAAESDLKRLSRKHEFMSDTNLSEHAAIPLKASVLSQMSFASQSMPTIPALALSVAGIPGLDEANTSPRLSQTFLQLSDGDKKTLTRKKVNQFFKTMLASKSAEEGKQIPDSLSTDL
UniProt Q92556: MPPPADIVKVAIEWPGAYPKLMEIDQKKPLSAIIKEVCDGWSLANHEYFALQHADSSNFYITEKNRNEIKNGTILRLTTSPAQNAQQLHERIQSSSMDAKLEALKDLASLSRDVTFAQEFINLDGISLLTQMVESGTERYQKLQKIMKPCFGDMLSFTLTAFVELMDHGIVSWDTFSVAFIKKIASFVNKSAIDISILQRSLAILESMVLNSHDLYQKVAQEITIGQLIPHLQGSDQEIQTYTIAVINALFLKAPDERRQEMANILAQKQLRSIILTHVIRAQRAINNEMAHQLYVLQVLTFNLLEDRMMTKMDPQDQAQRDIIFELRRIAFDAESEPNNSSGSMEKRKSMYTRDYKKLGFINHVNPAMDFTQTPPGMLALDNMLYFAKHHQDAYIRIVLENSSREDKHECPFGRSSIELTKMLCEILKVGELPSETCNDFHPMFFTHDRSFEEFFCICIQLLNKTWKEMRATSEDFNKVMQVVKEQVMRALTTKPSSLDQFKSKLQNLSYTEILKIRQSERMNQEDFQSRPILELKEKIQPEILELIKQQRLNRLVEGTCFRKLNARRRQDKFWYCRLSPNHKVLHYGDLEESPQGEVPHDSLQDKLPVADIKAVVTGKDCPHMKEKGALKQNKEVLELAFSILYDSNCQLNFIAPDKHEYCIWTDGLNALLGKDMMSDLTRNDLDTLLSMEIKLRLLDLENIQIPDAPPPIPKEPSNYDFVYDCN

No constants are given. Whether binding was seen depends on the method and setting. Some entries that bind do so weakly or less than the wild type.

In assay [1] the target is DOCK2^(Y1315A/L1322A/Y1329A), dimerization mutant (human) (UniProt Q92608). Put plainly: SEC; co-expressed and co-purified DOCK2–ELMO1 complex, wild type and dimer mutant; gel filtration buffer 50 mM Tris HCl (pH 8.0), 200 mM NaCl, 2 mM DTT; Superose 6 / Superdex 200 5/150GL; both purified. (Size exclusion chromatography separates by hydrodynamic size, large species first.)

The target in assay [2] is human DOCK2 (dedicator of cytokinesis 2) (human) (UniProt Q92608). The description is as above.
Assay [3] shares this target. As to the kind of experiment: cryo-EM structure; DOCK2−ELMO1 binary complex without RAC1, cross-linked with glutaraldehyde, single particle cryo-EM; both purified.
For assay [4] the target is unchanged. As to the kind of experiment: cryo-EM structure; DOCK2−ELMO1−RAC1 ternary complex, cross-linked with glutaraldehyde, single particle cryo-EM; both purified.

Turning to “DOCK2^(Y1315A/L1322A/Y1329A), dimerization mutant (from UniProt Q92608 1-1830)”, in assay [1], the binding entry is “no binding”.
Take “human ELMO1 (engulfment and cell motility protein 1) (from UniProt Q92556 1-727)”: the binding entry in assay [1], in assay [2], in assay [3] and in assay [4] was “binds” throughout.
